About 2,100 (0.66%) of roughly 320,000 compounds were called active. The shares of active, inactive and inconclusive entries below differ from those in the screen. Calls follow the shape of the dose curve; as a rule, active = well fitted inhibition curve with a large enough effect in the signal ratio, with a control signal flat (not every such curve was filed as active); inconclusive = small, poorly fitted or top-dose-only effect, or effect the other way, or a change in a side signal; inactive = flat fitted curve, though single readings scatter; the % refers to the signal ratio. Potencies of inconclusive entries are doubtful fits and often do not repeat.
assay: qHTS Assay for Lipid Storage Modulators in Drosophila S3 Cells; conditions: BODIPY lipid droplet fluorescence, 18-24 h, cells fed with added oleic acid; lipid storage change, negative = inhibition: at 46.1 µM (top of the series) unless noted
Method in brief: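 Laser-scanning cytometry quantifies lipid droplet accumulation (500–530 nm total intensity; droplet/cell object ratio) in oleic acid-fed (400 uM added) Drosophila S3 cells treated with a concentration series. 20 uM Triacsin C defined 100% inhibition.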
% is scaled to controls: 0 for no effect and ±100 for the full control effect; potency is read from the fitted curve at half-maximal effect.

Row | SMILES | Potency | lipid storage change, negative = inhibition
1 | CC1Sc2ccc(S(=O)(=O)N3CCC(C(=O)N(C)Cc4ccccc4)CC3)cc2NC1=O (stereo not given) | inconclusive: 29.1 µM [falling, single point] | 
2 | O=C(CN1CCN(S(=O)(=O)c2cccc(Cl)c2)CC1)N1CCCCC1 |  | inconclusive: -47.1%
3 | Oc1ccc2ccccc2c1CNn1cnnc1 | inconclusive: 29.1 µM [activator, single point] | 
4 | O=c1[nH]c2ccc(NS(=O)(=O)c3ccc([N+](=O)[O-])cc3)cc2[nH]1 |  | inconclusive: -4.97%
5 | CC(=O)OCC1OC(OCc2cn(C[C@H]3CC[C@H](Cn4cc(COC5OC(COC(C)=O)C(OC(C)=O)C(OC(C)=O)C5OC(C)=O)nn4)O3)nn2)C(OC(C)=O)C(OC(C)=O)C1OC(C)=O (stereo not given in full) |  | inconclusive: 36.3%
6 | CC(O/N=C/c1ccc(OC(F)F)cc1)C(=O)Nc1cccc(S(=O)(=O)N2CCOCC2)c1 (stereo not given) |  | inconclusive: -17.4%
7 | Cc1cccc(NC(=O)c2ccc(N3CCOCC3)c([N+](=O)[O-])c2)n1 |  | inconclusive: 40.7%
8 | Cc1ccc(C)c(OC(=O)c2cncc(Br)c2)c1 |  | inconclusive: 19.2%
9 | O=C(O)CCn1cc(C(=O)O)c(-c2ccccc2)n1 |  | inconclusive: -19.2%
10 | CC(C)(CNC(=O)CCNC(=O)c1ccc(Br)cc1)N1CCOCC1 |  | inconclusive: -40.3% [at 0.0737 µM]
11 | COc1ccc(CCNC(=O)c2nn(C)c3c2CS(=O)(=O)c2ccccc2-3)c(OC)c1 |  | inconclusive: 1.22%
12 | O=C1C(=O)c2ccccc2C([O-])=C1[n+]1ccccc1 |  | inactive: -4.48%
13 | Cc1c(Cl)cccc1NC(=S)N(C)CCC#N |  | inconclusive: 44.6%
14 | CCN(CC)CC(C)(C)COC(=O)c1oc2ccccc2c1C |  | inconclusive: -8.42%
15 | CS(=O)(=O)Nc1cccc(C2=NN(C(=O)CCC(=O)O)C(c3cccs3)C2)c1 (stereo not given) |  | inconclusive: 8.77%
16 | CC1(C)CC(=O)C(C=Nc2ccc(C(=O)c3ccccc3)cc2N=CC2=C(O)CC(C)(C)CC2=O)=C(O)C1 |  | inconclusive: 11.8%
17 | COc1ccc(CNC(=O)COc2cc3c(c4oc(=O)cc(C)c24)CCC(C)(C)O3)cc1 | inconclusive: 0.0052 µM [falling, full curve, poor fit] | 
18 | CC1Cc2cc(/C(O)=C3/C(=O)C(=O)N(CCCn4ccnc4)C3c3ccc(Br)cc3)ccc2O1 (stereo not given) |  | inconclusive: 35.5%
19 | COC(=O)c1ccccc1NC(=O)Nc1c(C)n(C)n(-c2ccccc2)c1=O | inconclusive: 3.26 µM [activator, single point] | 
20 | COc1ccc(CCN(C)C(=O)c2cnc(C)cn2)cc1OC |  | inconclusive: -29.9%

Copied from the list:
In lipid storage change, negative = inhibition, Cc1ccc(C)c(OC(=O)c2cncc(Br)c2)c1 has the entry inconclusive: 19.2%
In lipid storage change, negative = inhibition, COc1ccc(CCN(C)C(=O)c2cnc(C)cn2)cc1OC has the entry inconclusive: -29.9%
